From PubChem BioAssay AID2685 (National Center for Advancing Translational Sciences (NCATS), 2010)
The other results are listed elsewhere or left out. The main result of the screen is listed elsewhere. These columns were measured beside it and carry no call. Compounds called inactive in the main read-out are mostly missing here. The note in brackets gives the kind of curve behind each potency; many fits are weak.

Test: qHTS Assay for Lipid Storage Modulators in Drosophila S3 Cells;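 on cell number change: cells counted by Cell Tracker Red CMTPX staining in the red channel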
Settings: BODIPY lipid droplet fluorescence, 18-24 h; for cell number change: measured here: cell count max response, cells fed with added oleic acid
Outline: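 Drosophila S3 cells got compounds at several concentrations plus oleic acid (400 uM solution). Laser-scanning cytometry with 488 nm excitation read lipid droplets at 500-530 nm and cells at 575-640 nm. Percent activity was relative to 20 uM Triacsin C.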

[1] = measured here: cell number channel AC50, cells fed with added oleic acid
[2] = measured here: lipid fluorescence (Fed channel) AC50, cells fed with added oleic acid

| Compound | cell number change [%] | AC50 [1] | AC50 [2] |
| --- | --- | --- | --- |
| Cn1cccc1C(=O)NC1CCCCC1 | -27 | 3.66 µM [falling, full curve, poor fit] | 1.84 µM [falling, full curve] |
| C/C(CC(=O)Nc1ccccn1)=N\NC(=O)c1ccc2ccccc2c1 | 8.44 |  | 1.03 µM [rising, full curve] |
| COc1ccc(-n2c(C)cc3cc(OC(C)=O)ccc32)cc1 | -5.03 |  | 29.1 µM [rising, single point] |
| Cc1ccnc(SCc2ccc(C(=O)O)cc2)n1 | 27.5 |  |  |
| Cc1ccc(-c2nnc(SCC(=O)n3c4c(c5ccccc53)CCCC4)o2)cc1 |  | 0.82 µM [falling, single point] | 29.1 µM [falling, single point] |
| CC(C)N(Cc1nc(-c2ccccc2)no1)C(=O)CCCN1C(=O)c2ccccc2C1=O | 1.42 |  | 2.06 µM [rising, partial curve] |
| NS(=O)(=O)c1ccc(CCNC(=O)CNC(=O)C2CCCCC2)cc1 | 4.15 |  | 29.1 µM [rising, single point] |
| O=C(N/C=C\c1ccccc1)NCc1ccc(Cl)cc1 | -0.903 |  |  |
| COC(=O)c1cc2nc(-c3ccc(C)cc3)cc(C(F)(F)F)n2n1 | -6.44 |  | 6.51 µM [falling, single point] |
| CCOc1ccccc1N1CCN(C(=O)c2ccc3[nH]c(C)c(C)c3c2)CC1 | 9.54 |  | 29.1 µM [rising, single point] |
| C[C@@]12C(=O)N(c3ccc(F)cc3)C(=O)N1[C@@H]1c3ccccc3OC[C@@H]1[C@H]2c1ccccc1 | 5.69 |  |  |
| CC(C)CN(C(=O)COC(=O)C1=COCCO1)c1c(N)n(Cc2ccccc2)c(=O)[nH]c1=O | -22.1 | 0.82 µM [falling, partial curve, poor fit] |  |
| O=C(/C(=N/N=C/c1ccc(O)c(O)c1)c1ccccc1)c1ccccc1 | -65.2 | 14.6 µM [falling, partial curve] | 14.6 µM [falling, partial curve] |
| Cc1ccc(N(C(=O)c2snc(C(N)=O)c2N)C(C(=O)NC2CCCC2)c2ccco2)cc1 (stereo not given) | -1.61 |  | 0.103 µM [rising, full curve, poor fit] |
| CC(C)OCCCNC(=O)Cc1ccc(Br)cc1 | -12.4 | 6.51 µM [rising, single point] | 5.8 µM [rising, single point] |
| CC(C)(C)[C@@H]1C=C(C(N)=O)O[C@H](OCc2ccc(CO)cc2)C1 | -15.5 |  | 1.46 µM [falling, partial curve, poor fit] |
| COCn1ccnc1C(O)(c1ccc(OC)cc1)c1ccc(OC)cc1 | 32 | 3.66 µM [rising, full curve] | 0.58 µM [rising, full curve] |
| NC(=O)C1CCN(C(=O)C2CCN(C(=O)Nc3ccccc3)CC2)CC1 | -19.7 |  |  |

Looked up by structure from above, 2 records:

| Compound | cell number change [%] | AC50 [1] | AC50 [2] |
| --- | --- | --- | --- |
| Cc1ccc(-c2nnc(SCC(=O)n3c4c(c5ccccc53)CCCC4)o2)cc1 |  | 0.82 µM [falling, single point] | 29.1 µM [falling, single point] |
| CC(C)N(Cc1nc(-c2ccccc2)no1)C(=O)CCCN1C(=O)c2ccccc2C1=O | 1.42 |  | 2.06 µM [rising, partial curve] |

Further records.

| Compound | cell number change [%] | AC50 [1] | AC50 [2] |
| --- | --- | --- | --- |
| Cc1cccc(NC(=O)c2cc(NC(=O)c3ccccc3)ccc2N2CCCCC2)c1 | 59.2 | 0.058 µM [rising, full curve, poor fit] | 3.66 µM [rising, full curve] |
| CCCCCCC(=O)N(O)C1CC(=O)N(c2ccc(F)cc2)C1=O (stereo not given) | -68 | 18.4 µM [falling, single point] | 20.6 µM [falling, partial curve] |
| COc1cccc(/C=C(/C(=O)OCC(=O)NC2CCCC(C)C2C)c2ccccc2)c1 (stereo not given) | -2.59 |  | 0.517 µM [rising, full curve] |
| CCC(=O)N1CCN(c2ccc(NC(=O)c3c(F)c(F)c(OC)c(F)c3F)cc2)CC1 | 7.13 |  |  |
| O=C(CCCCn1c(=O)c2ccccc2n(Cc2ccc(Cl)cc2)c1=O)NCc1ccco1 | -120 | 29.1 µM [falling, single point] | 29.1 µM [falling, single point] |
| Cc1ccc(-c2nc3ncccc3o2)cc1NC(=O)COc1ccccc1 | 27 | 0.184 µM [rising, full curve, poor fit] | 6.51 µM [rising, partial curve, poor fit] |
| O=C(NC1CCCCCCC1)c1cc(F)c(F)cc1Cl | 63.1 |  |  |
| CCN(CC)C(=O)CSC1=N/C(=C/c2ccco2)C(=O)N1c1ccc(OC)c(Cl)c1 | -27.1 |  | 18.4 µM [falling, single point] |
| NS(=O)(=O)c1cc(C(=O)NCCOc2ccccc2)c(Cl)cc1Cl | 2.28 |  | 2.06 µM [falling, full curve, poor fit] |
| COCCN(Cc1cc2cc3c(cc2n2nnnc12)OCO3)C(=O)c1ccccc1F | 115 | 0.082 µM [rising, single point] |  |
| Cn1c2c(c(=O)n(C)c1=O)C(C(F)(F)F)(C(F)(F)F)N=C(c1ccc(Cl)cc1)N2 | -72.8 | 10.3 µM [falling, partial curve] | 2.59 µM [falling, full curve] |
| CC(NC(=O)/C(C#N)=C/c1cn[nH]c1-c1ccccc1)c1ccccc1 (stereo not given) | -35.4 | 23.1 µM [falling, partial curve] | 23.1 µM [falling, single point] |
| CCCCNC(=O)Nc1c(C(=O)OC)[nH]c2ccc(C)cc12 | 43 | 0.00411 µM [rising, full curve, poor fit] | 20.6 µM [rising, partial curve] |
| CCc1ccccc1N=C1S/C(=C/c2ccccc2OCC(=O)N2CCOCC2)C(=O)N1C | -55.5 | 29.1 µM [falling, single point] | 20.6 µM [falling, partial curve] |
| COc1ccc(C2C(C#N)=C(N)N(N(C)C)C3=C2C(=O)CC(C)(C)C3)cc1 (stereo not given) | -5.56 |  | 29.1 µM [falling, single point] |
| CN1/C(=C\C=N\O)C(C)(C)c2ccccc21 |  | 0.103 µM [rising, full curve, poor fit] |  |
| O=C(C1CCCC1)N1CCN(S(=O)(=O)c2cccc(Cl)c2Cl)CC1 | 11.7 |  | 6.51 µM [rising, single point] |
